Protein sequences, listed by entry. Tags and fused reporters are not part of them. Lines headed by an entry give the natural chain unless they say otherwise; changes in a name come on top.
UniProt P56959: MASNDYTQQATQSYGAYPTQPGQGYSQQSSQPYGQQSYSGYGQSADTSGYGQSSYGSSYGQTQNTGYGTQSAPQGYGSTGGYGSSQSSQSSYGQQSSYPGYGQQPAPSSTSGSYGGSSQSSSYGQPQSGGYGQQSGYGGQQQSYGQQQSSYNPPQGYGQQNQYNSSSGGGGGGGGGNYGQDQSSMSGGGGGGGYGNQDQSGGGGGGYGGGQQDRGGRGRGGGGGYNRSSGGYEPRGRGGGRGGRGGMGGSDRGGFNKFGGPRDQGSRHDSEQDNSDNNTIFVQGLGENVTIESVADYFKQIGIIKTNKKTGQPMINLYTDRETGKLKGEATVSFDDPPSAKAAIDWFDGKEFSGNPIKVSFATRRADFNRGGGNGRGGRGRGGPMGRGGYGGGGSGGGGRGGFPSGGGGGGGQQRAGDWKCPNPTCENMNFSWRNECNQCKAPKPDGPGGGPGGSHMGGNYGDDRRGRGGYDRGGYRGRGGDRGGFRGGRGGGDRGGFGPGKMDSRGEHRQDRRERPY
UniProt P97801: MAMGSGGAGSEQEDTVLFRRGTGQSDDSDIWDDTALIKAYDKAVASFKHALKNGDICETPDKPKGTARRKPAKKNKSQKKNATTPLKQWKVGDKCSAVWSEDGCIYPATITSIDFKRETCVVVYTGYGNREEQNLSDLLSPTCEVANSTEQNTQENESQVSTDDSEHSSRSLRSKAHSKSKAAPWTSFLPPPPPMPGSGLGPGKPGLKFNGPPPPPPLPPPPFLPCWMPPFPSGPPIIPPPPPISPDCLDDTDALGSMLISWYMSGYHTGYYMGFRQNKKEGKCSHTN

In article PMC8294762:

Biological target: ∆14 FUS, endogenous protein of the ∆14 Fus knockin mouse (mouse (endogenous in knockin embryonic brain)) (UniProt P56959)
Assay: co-IP; E12.5-14.5 mouse brains homogenised in 20 mM HEPES pH 7.4, 150 mM NaCl, 10% glycerol; 1 mg lysate, 2 μg antibody or IgG control overnight, Protein A Sepharose; which protein was precipitated is not told

Survival Motor Neuron (SMN), mouse, endogenous (from UniProt P97801 1-288)
binding: binds

No constants are given. Whether binding was seen depends on the method and setting. Binding seen in cells or lysates may run through a third protein. A result given as binding can be weak or reduced; the word gives no strength.
